Values quoted from earlier work in patent US20220088102A1, “CROTON LECHLERI COMPOSITIONS AND THEIR USE IN THE TREATMENT OF CYSTIC FIBROSIS” (priority 2020, published 2022).
At least one compound was matched to its structure with a doubt left.

System: Pseudomonas aeruginosa
Settings: quality control strain ATCC 27853; cited from earlier work

Structure (SMILES): C[C@@H](O)[C@H]1C(=O)N2C(C(=O)O)=C(SCCN=CN)C[C@H]12 [Imipenem]
- CLSI QC Range MIC: 1 to 4 µg/mL
